Test results taken from the supplement of paper PMC10849652.
This is one part of the list.

Amino acid sequences for entries named in this document (tags omitted). A change or cut given only in a name is not applied to a line headed by its entry.
UniProt P53621: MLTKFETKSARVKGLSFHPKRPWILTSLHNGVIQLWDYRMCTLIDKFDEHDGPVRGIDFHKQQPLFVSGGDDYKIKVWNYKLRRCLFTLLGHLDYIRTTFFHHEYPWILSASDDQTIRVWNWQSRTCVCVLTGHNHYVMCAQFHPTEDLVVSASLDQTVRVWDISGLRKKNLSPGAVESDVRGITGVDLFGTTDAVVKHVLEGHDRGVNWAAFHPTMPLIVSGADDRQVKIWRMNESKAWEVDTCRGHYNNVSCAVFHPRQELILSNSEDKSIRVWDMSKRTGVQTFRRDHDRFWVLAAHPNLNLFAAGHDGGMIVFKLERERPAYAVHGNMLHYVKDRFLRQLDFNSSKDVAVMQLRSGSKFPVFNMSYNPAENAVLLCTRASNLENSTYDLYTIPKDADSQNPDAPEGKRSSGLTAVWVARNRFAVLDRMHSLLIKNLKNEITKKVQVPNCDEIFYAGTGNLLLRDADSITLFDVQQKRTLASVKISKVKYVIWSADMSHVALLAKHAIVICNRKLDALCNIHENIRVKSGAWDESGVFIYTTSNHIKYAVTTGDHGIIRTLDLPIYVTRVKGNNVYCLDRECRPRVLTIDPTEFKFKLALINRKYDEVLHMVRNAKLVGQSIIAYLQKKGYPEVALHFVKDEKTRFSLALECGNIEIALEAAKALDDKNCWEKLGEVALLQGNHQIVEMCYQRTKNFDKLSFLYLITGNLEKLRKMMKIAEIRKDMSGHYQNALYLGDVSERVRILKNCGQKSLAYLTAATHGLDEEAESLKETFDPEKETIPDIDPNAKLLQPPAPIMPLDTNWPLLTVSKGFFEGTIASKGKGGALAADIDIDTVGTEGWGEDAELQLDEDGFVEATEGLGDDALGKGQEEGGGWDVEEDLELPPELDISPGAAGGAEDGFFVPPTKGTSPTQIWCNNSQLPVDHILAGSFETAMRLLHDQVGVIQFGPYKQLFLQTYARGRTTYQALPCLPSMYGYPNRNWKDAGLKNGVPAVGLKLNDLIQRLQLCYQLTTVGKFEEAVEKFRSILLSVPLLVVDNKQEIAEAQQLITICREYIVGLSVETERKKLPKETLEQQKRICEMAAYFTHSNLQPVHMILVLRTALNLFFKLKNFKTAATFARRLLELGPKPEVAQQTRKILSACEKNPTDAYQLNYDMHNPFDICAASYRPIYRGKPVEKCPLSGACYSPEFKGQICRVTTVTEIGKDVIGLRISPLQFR
UniProt Q9BR76, whole entry, looked up: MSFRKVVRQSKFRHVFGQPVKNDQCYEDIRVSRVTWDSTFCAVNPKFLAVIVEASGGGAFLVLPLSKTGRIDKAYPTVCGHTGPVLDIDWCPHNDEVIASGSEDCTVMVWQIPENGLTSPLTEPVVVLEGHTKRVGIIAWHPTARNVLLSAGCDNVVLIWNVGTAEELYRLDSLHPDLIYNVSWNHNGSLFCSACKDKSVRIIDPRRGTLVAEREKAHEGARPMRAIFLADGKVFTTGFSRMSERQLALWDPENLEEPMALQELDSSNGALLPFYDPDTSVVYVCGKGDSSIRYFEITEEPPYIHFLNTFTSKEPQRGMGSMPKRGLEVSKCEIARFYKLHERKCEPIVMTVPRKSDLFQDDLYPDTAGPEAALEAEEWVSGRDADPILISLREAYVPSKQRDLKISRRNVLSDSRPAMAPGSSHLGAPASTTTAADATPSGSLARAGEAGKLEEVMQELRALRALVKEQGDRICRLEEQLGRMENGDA
UniProt Q6UXH1: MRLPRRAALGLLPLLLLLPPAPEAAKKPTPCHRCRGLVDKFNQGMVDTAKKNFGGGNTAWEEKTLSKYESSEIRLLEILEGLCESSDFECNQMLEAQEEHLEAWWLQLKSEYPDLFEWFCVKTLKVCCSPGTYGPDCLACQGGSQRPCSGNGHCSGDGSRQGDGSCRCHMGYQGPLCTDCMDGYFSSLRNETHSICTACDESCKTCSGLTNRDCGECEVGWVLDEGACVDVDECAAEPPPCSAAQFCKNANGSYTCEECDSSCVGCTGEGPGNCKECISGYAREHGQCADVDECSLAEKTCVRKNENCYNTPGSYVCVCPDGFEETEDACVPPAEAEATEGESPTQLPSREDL
UniProt Q9H9Q2: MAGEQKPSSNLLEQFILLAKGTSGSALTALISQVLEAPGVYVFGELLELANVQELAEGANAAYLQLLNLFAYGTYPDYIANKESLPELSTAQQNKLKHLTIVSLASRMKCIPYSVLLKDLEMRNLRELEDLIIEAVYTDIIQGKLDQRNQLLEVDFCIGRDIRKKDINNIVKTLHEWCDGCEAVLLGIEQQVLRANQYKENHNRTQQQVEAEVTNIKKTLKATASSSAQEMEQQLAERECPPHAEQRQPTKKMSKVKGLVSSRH
UniProt Q99627: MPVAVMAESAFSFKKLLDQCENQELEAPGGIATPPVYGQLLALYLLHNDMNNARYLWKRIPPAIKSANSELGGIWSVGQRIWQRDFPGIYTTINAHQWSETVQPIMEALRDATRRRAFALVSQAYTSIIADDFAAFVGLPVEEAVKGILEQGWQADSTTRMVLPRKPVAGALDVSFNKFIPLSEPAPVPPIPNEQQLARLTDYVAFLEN
UniProt Q92793, whole entry, looked up: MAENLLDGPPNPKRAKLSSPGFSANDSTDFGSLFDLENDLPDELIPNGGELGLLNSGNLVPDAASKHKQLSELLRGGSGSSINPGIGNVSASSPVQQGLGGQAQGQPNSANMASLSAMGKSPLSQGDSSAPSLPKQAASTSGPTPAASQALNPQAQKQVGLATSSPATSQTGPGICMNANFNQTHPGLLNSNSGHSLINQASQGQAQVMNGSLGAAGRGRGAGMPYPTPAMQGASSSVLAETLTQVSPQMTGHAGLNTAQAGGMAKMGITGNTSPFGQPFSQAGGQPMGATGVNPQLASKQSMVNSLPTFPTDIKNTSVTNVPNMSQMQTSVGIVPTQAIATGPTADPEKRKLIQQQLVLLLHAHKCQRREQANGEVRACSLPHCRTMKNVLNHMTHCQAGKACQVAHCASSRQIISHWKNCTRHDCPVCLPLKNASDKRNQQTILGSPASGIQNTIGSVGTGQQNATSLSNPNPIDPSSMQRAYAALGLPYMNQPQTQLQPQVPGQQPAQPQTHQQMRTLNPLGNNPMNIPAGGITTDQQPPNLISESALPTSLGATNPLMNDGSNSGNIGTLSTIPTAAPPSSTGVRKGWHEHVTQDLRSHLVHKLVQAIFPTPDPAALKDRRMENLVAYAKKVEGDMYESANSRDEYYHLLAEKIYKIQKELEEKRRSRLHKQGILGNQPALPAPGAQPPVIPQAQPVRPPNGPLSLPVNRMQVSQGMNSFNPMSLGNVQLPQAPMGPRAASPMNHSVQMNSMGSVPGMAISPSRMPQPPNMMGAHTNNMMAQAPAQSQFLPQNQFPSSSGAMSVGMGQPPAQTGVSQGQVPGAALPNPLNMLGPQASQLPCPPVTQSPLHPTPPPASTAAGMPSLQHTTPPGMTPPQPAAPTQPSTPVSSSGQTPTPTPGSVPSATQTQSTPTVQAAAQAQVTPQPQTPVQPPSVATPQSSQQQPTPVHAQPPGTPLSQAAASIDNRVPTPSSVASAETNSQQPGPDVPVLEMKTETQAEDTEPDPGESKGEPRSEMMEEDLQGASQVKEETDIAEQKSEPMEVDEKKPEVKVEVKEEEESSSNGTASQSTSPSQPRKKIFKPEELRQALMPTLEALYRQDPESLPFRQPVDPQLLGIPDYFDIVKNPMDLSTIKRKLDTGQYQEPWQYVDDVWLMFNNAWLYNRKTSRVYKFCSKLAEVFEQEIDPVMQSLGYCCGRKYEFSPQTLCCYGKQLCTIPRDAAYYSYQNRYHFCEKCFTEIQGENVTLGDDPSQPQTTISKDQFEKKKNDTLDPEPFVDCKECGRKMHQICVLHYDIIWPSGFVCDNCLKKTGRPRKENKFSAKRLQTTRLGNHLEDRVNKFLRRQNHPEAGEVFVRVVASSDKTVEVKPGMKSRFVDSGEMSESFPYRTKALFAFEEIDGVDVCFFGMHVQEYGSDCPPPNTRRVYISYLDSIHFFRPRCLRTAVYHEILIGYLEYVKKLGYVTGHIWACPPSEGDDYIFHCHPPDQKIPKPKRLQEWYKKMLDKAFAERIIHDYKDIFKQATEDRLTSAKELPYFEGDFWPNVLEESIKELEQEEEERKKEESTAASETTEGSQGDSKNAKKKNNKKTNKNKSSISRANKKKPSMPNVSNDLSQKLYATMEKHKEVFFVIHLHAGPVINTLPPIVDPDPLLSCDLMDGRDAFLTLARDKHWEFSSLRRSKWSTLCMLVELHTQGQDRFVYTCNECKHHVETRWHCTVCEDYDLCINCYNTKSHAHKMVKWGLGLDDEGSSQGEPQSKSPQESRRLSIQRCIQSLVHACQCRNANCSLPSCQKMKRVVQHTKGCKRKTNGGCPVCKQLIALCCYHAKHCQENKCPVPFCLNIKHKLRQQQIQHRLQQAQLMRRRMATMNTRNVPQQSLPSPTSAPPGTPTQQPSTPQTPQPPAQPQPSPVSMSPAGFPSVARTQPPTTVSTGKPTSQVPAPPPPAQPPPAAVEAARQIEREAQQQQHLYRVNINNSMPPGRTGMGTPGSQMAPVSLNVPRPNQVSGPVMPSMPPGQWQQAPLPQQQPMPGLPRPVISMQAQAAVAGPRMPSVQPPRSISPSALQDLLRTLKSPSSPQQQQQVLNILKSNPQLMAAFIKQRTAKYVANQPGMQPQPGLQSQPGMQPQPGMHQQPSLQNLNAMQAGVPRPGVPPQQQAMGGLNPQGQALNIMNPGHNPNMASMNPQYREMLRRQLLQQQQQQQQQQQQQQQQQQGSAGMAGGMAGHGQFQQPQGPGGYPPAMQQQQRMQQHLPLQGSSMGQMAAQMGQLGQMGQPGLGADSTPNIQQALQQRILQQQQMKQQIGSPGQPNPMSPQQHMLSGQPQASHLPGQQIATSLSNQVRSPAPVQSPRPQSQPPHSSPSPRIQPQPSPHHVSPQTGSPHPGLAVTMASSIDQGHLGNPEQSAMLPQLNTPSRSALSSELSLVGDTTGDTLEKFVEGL
UniProt O75976: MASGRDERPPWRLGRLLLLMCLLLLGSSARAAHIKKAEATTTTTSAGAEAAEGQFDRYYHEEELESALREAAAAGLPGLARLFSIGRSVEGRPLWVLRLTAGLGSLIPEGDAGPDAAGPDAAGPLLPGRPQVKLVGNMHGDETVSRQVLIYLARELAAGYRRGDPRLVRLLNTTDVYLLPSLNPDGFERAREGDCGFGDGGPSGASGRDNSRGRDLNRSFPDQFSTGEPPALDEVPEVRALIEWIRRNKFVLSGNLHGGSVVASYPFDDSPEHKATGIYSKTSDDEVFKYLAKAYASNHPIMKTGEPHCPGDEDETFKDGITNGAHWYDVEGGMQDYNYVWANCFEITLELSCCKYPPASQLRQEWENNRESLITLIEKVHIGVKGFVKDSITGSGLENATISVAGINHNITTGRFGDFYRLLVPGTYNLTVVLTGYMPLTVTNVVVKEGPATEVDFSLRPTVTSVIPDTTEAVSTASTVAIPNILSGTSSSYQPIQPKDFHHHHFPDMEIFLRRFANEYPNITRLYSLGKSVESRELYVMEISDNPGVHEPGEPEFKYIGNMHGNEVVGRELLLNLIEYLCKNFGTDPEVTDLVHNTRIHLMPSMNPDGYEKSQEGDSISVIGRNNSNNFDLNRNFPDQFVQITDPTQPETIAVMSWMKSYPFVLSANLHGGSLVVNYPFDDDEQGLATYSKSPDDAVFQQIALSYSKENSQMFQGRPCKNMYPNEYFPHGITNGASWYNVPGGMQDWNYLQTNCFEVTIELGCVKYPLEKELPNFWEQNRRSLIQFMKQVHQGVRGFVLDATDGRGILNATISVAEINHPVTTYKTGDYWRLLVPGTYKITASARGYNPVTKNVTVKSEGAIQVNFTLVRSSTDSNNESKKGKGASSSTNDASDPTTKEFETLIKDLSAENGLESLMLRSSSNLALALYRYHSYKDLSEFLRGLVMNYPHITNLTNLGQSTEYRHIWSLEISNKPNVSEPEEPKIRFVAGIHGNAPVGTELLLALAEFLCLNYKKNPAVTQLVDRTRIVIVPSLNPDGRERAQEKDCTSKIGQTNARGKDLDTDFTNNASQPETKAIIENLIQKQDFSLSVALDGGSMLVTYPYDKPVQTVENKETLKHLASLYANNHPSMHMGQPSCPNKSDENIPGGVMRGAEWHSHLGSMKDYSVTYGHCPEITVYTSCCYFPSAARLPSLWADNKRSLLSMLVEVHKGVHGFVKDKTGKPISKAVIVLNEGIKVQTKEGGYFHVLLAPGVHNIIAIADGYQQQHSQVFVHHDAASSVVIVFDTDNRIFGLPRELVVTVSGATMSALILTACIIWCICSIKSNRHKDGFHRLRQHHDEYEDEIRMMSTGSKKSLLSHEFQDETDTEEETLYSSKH
UniProt P20674, whole entry, looked up: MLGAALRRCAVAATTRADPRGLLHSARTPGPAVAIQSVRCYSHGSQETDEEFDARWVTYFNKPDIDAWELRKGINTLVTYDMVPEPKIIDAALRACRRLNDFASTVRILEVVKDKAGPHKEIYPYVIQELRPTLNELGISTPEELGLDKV
UniProt Q14061: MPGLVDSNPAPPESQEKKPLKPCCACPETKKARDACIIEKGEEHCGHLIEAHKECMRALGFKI

What was measured:
Experiment in all cases: log2 fold change, soluble protein after heating vs DMSO (PISA); higher = thermal stabilisation; K562 cells, 10 uM, 30 min; active = over 0.2 and 3.5 SD of the protein, either way, in both replicates (recomputed)
erlotinib = compound: C#Cc1cccc(Nc2ncnc3cc(OCCOC)c(OCCOC)cc23)c1 [erlotinib]
Outline: (§1)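 Soluble protein was defined as the supernatant after 21,000xg for 90 min. It came from K562 cells at 2×10^6 cells/mL given 10 μM compound for 30 min, heated in aliquots for 3 min across 48°C-58°C, pooled, and extracted in PBS with 0.5% NP-40 at 4°C, and was quantified by TMTpro 16plex LC-MS/MS with equalised channel sums. Thermal stability against control samples, from duplicates, is reported as log2 fold change.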

[1] = compound: C/C(=N\NC(=O)C1=CC(=CC=C1)S(=O)(=O)N2CCOCC2)/C3=C(C=CC(=C3)Cl)O
Outline: as §1

[2] = compound: C1=CC(=C(C=C1Cl)C2=NC3=NC=CN=C3C(=N2)NC4=CC=NC=C4)F
Outline: as §1

[3] = compound: C1=CC(=CC=C1C2=NC3=C(N2)C=C(C=C3)C(=O)N)OC4=CC=C(C=C4)Cl
Outline: as §1

[4] = compound: C1=CC2=C(C=CC(=C2)/C=C\3/C(=O)NC(=NCC4=CC=CS4)S3)N=C1
Outline: as §1

[5] = compound: C1=CC2=NC=CN=C2C=C1/C=C/3\C(=O)NC(=O)S3
Outline: as §1

[6] = compound: C1=CC=C(C=C1)C2=NC(=C(N2)C3=CC=NC=C3)C4=CC(=C(C=C4)Cl)O
Outline: as §1

[7] = compound: C1=CC=C2C(=C1)C3=NNC4=CC=CC(=C43)C2=O
Outline: as §1

[8] = compound: C1CCN(C1)C(=O)NC2=CC=CC(=C2)NC3=NC=C(C(=N3)NCCC4=CN=CN4)Br
Outline: as §1

[9] = compound: C1CN(CCC1(CC2=CC=C(C=C2)Cl)N)C3=NC=NC4=C3C=CN4
Outline: as §1

Measured: log2 fold change

COX11 (UniProt Q9Y6N1)
inactive: erlotinib -0.014 | [1] 0.074 | [2] 0.051 | [3] 0.073 | [4] 0.045 | [5] 0.025 | [6] 0.065 | [7] 0.049 | [8] -0.088 | [9] 0.029

COPA isoform 2 (UniProt P53621)
inactive: erlotinib -0.036 | [1] 0.026 | [2] 0.049 | [3] 0 | [4] 0.024 | [5] 0.015 | [6] 0.027 | [7] -0.009 | [8] 0.015 | [9] 0.029

CORO1B (UniProt Q9BR76)
inactive: erlotinib 0.021 | [1] 0.065 | [2] 0.011 | [3] -0.008 | [4] -0.006 | [5] 0.025 | [6] 0.009 | [7] 0.053 | [8] -0.029 | [9] 0.018

CRELD2 isoform 5 (UniProt Q6UXH1)
inactive: erlotinib 0.026 | [1] -0.06 | [2] 0.099 | [3] 0.012 | [4] -0.083 | [5] 0.053 | [6] -0.043 | [7] -0.039 | [8] 0.044 | [9] 0.055

CPED1 (UniProt A4D0V7)
inactive: erlotinib -0.024 | [1] -0.15 | [2] -0.084 | [3] 0.072 | [4] -0.179 | [5] -0.056 | [6] 0.01 | [7] -0.033 | [8] -0.073 | [9] -0.022

CRELD1 isoform 2 (UniProt Q96HD1)
inactive: erlotinib -0.012 | [1] -0.034 | [2] -0.024 | [3] -0.048 | [4] 0.276 | [5] 0.007 | [6] -0.095 | [7] -0.002 | [8] 0.265 | [9] -0.027

CREM isoform 1 (UniProt Q03060)
inactive: erlotinib -0.09 | [1] 0.024 | [2] -0.02 | [3] 0.077 | [4] 0.042 | [5] -0.049 | [6] 0.021 | [7] 0.013 | [8] 0.093 | [9] -0.075

COPS7B (UniProt Q9H9Q2)
inactive: erlotinib -0.031 | [1] 0.037 | [2] 0.067 | [3] -0.022 | [4] -0.076 | [5] 0.009 | [6] 0.055 | [7] 0.016 | [8] -0.01 | [9] 0.036

CSNK1A1L (UniProt Q8N752)
inactive: erlotinib -0.078 | [1] -0.013 | [2] -0.062 | [3] 0.093 | [4] -0.026 | [5] 0.05 | [6] -0.024 | [7] -0.062 | [8] -0.045 | [9] -0.057

CPNE3 (UniProt O75131)
inactive: erlotinib -0.025 | [1] 0.011 | [2] 0.073 | [3] 0 | [4] -0.021 | [5] -0.007 | [6] 0.03 | [7] -0.05 | [8] 0.029 | [9] 0.227

CSNK2B (UniProt P67870)
active: [5] 0.324
inactive: erlotinib -0.021 | [1] -0.024 | [2] -0.017 | [3] -0.007 | [4] 0.123 | [6] 0.031 | [7] 0.084 | [8] -0.031 | [9] -0.023

COPS8 (UniProt Q99627)
inactive: erlotinib 0.033 | [1] 0.032 | [2] -0.005 | [3] -0.002 | [4] 0.081 | [5] 0.008 | [6] 0.012 | [7] -0.042 | [8] -0.04 | [9] 0.015

COX5B (UniProt P10606)
inactive: erlotinib -0.068 | [1] 0.062 | [2] 0.16 | [3] -0.041 | [4] 0.032 | [5] 0.03 | [6] 0.114 | [7] -0.023 | [8] -0.067 | [9] -0.003

COPE (UniProt O14579)
inactive: erlotinib -0.037 | [1] 0.016 | [2] 0.07 | [3] 0 | [4] 0.051 | [5] 0.015 | [6] -0.037 | [7] -0.002 | [8] 0.086 | [9] -0.012

CRKL (UniProt P46109)
inactive: erlotinib -0.012 | [1] -0.002 | [2] 0.014 | [3] -0.02 | [4] 0.047 | [5] 0.006 | [6] -0.069 | [7] -0.017 | [8] 0.017 | [9] 0.026

CREBBP (UniProt Q92793)
inactive: erlotinib -0.021 | [1] 0.088 | [2] 0.076 | [3] 0.029 | [4] 0.001 | [5] 0.027 | [6] -0.008 | [7] 0.016 | [8] -0.04 | [9] 0.037

Quoted from the entries so far (five entries):
CSNK2B (UniProt P67870)
active: [5] 0.324
inactive: erlotinib -0.021 | [1] -0.024 | [2] -0.017 | [3] -0.007 | [4] 0.123 | [6] 0.031 | [7] 0.084 | [8] -0.031 | [9] -0.023

COPS8 (UniProt Q99627)
inactive: erlotinib 0.033 | [1] 0.032 | [2] -0.005 | [3] -0.002 | [4] 0.081 | [5] 0.008 | [6] 0.012 | [7] -0.042 | [8] -0.04 | [9] 0.015

COX5B (UniProt P10606)
inactive: erlotinib -0.068 | [1] 0.062 | [2] 0.16 | [3] -0.041 | [4] 0.032 | [5] 0.03 | [6] 0.114 | [7] -0.023 | [8] -0.067 | [9] -0.003

COPE (UniProt O14579)
inactive: erlotinib -0.037 | [1] 0.016 | [2] 0.07 | [3] 0 | [4] 0.051 | [5] 0.015 | [6] -0.037 | [7] -0.002 | [8] 0.086 | [9] -0.012

CRKL (UniProt P46109)
inactive: erlotinib -0.012 | [1] -0.002 | [2] 0.014 | [3] -0.02 | [4] 0.047 | [5] 0.006 | [6] -0.069 | [7] -0.017 | [8] 0.017 | [9] 0.026

(listing goes on)

COX19 (UniProt Q49B96)
inactive: erlotinib -0.017 | [1] 0 | [2] 0.019 | [3] 0.033 | [4] 0.029 | [5] 0.038 | [6] -0.04 | [7] -0.02 | [8] -0.023 | [9] 0.018

CRMP1 isoform 2 (UniProt Q14194)
inactive: erlotinib -0.1 | [1] -0.273 | [3] 0.009 | [4] 0.101 | [5] -0.011 | [7] -0.037 | [8] 0.088 | [9] -0.014

CPD (UniProt O75976)
inactive: erlotinib -0.025 | [1] -0.08 | [2] 0.009 | [3] 0.028 | [4] 0.055 | [5] 0.011 | [6] -0.007 | [7] -0.041 | [8] -0.045 | [9] 0.008

COX6C (UniProt P09669)
inactive: erlotinib -0.013 | [1] 0.036 | [2] 0.042 | [3] -0.032 | [4] 0.021 | [5] 0.001 | [6] 0.024 | [7] 0.012 | [8] -0.017 | [9] -0.02

COMP (UniProt P49747)
inactive: erlotinib -0.09 | [1] -0.222 | [3] 0.198 | [4] 0.137 | [5] 0.099 | [6] -0.102 | [7] -0.167 | [8] 0.212 | [9] 0.199

COLGALT2 (UniProt Q8IYK4)
inactive: erlotinib -0.098 | [1] -0.06 | [2] -0.086 | [3] 0.072 | [4] -0.036 | [5] -0.004 | [6] -0.045 | [7] 0.028 | [8] -0.01 | [9] -0.056

COX5A (UniProt P20674)
inactive: erlotinib -0.005 | [1] -0.05 | [2] 0.104 | [3] 0.052 | [4] 0.045 | [5] 0.016 | [6] 0.183 | [7] 0.051 | [8] -0.026 | [9] -0.081

COX17 (UniProt Q14061)
inactive: erlotinib -0.032 | [1] -0.064 | [2] 0.375 | [3] -0.009 | [4] 0.035 | [6] 0.207 | [7] 0.404 | [8] -0.117 | [9] 0

COX7A2L (UniProt O14548)
inactive: erlotinib -0.004 | [1] 0.08 | [2] 0.175 | [3] 0.062 | [4] 0.124 | [5] 0.054 | [6] 0.028 | [7] -0.014 | [8] 0.007 | [9] 0.041

CPNE2 (UniProt Q96FN4)
inactive: erlotinib -0.156 | [1] -0.072 | [2] -0.03 | [3] -0.229 | [4] -0.108 | [5] 0.109 | [6] -0.075 | [7] 0.075 | [8] 0.124 | [9] -0.095

CORO2A (UniProt Q92828)
inactive: erlotinib -0.035 | [1] 0.064 | [3] -0.011 | [4] -0.001 | [5] 0.127 | [6] 0.138 | [7] -0.042 | [8] 0.034 | [9] 0.031

CRYZ (UniProt Q08257)
inactive: erlotinib 0.013 | [1] 0.008 | [2] 0.089 | [3] -0.028 | [4] -0.001 | [5] -0.016 | [6] -0.025 | [7] 0.008 | [8] 0.027 | [9] 0.028
